{"source": "PubChem BioAssay AID1259425 | University of Nebraska Medical Center, 2018", "screen": "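Seek colon cancer weak points whose silencing resembles KSR1 loss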 (primary screen)", "cells": "HCT116 human colon cancer cells", "knock-down reagent": "siRNA pool against human genes, 50 nM siRNA", "read-out": "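mRNA of six signature genes measured together by branched-DNA assay after 50 nM siRNA pool, blank removed, divided by geometric mean of two housekeeping genes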", "direction": "BNIP3L mRNA: higher = more BNIP3L transcript after knockdown; NDRG1 mRNA: higher = more NDRG1 transcript after knockdown", "note": "In all, the deposit lists about 14,000 reagents; this is a random part of them. Further read-outs or replicates are left out here. Not given: the time to read-out."}
{"gene symbol": "HAS1 (hyaluronan synthase 1)", "PubChem SID": "SID363992781", "BNIP3L mRNA, set 1": 0.31, "NDRG1 mRNA, set 1": 0.284}
{"gene symbol": "MDH2 (malate dehydrogenase 2)", "PubChem SID": "SID363996787", "BNIP3L mRNA, set 1": 0.0923, "NDRG1 mRNA, set 1": 0.355}
{"gene symbol": "RPS27 (ribosomal protein S27)", "PubChem SID": "SID363992327", "BNIP3L mRNA, set 1": 0.152, "NDRG1 mRNA, set 1": 0.249}
{"gene symbol": "ECHDC1 (ethylmalonyl-CoA decarboxylase 1)", "PubChem SID": "SID364001107", "BNIP3L mRNA, set 1": 0.127, "NDRG1 mRNA, set 1": 0.325}
{"gene symbol": "CA5B (carbonic anhydrase 5B)", "PubChem SID": "SID363997916", "BNIP3L mRNA, set 1": 0.076, "NDRG1 mRNA, set 1": 0.237}
{"gene symbol": "DBH (dopamine beta-hydroxylase)", "PubChem SID": "SID363992077", "BNIP3L mRNA, set 1": 0.0915, "NDRG1 mRNA, set 1": 0.252}
{"gene symbol": "ONECUT2 (one cut homeobox 2)", "PubChem SID": "SID363995803", "BNIP3L mRNA, set 1": 0.127, "NDRG1 mRNA, set 1": 0.217}
{"gene symbol": "SPOUT1 (SPOUT domain containing methyltransferase 1)", "PubChem SID": "SID364000080", "BNIP3L mRNA, set 1": 0.0585, "NDRG1 mRNA, set 1": 0.193}
{"gene symbol": "L3MBTL3 (L3MBTL histone methyl-lysine binding protein 3)", "PubChem SID": "SID364005030", "BNIP3L mRNA, set 1": 0.118, "NDRG1 mRNA, set 1": 0.154}
{"gene symbol": "DNASE1L1 (deoxyribonuclease 1 like 1)", "PubChem SID": "SID363997502", "BNIP3L mRNA, set 1": 0.176, "NDRG1 mRNA, set 1": 0.244}
{"gene symbol": "ARHGEF4 (Rho guanine nucleotide exchange factor 4)", "PubChem SID": "SID363999414", "BNIP3L mRNA, set 1": 0.112, "NDRG1 mRNA, set 1": 0.155}
{"gene symbol": "ZZEF1 (zinc finger ZZ-type and EF-hand domain containing 1)", "PubChem SID": "SID363999309", "BNIP3L mRNA, set 1": 0.133, "NDRG1 mRNA, set 1": 0.114}
{"gene symbol": "KCNK6 (potassium two pore domain channel subfamily K member 6)", "PubChem SID": "SID363995776", "BNIP3L mRNA, set 1": 0.112, "NDRG1 mRNA, set 1": 0.313}
{"gene symbol": "NDUFA5 (NADH:ubiquinone oxidoreductase subunit A5)", "PubChem SID": "SID363995939", "BNIP3L mRNA, set 1": 0.108, "NDRG1 mRNA, set 1": 0.229}
{"gene symbol": "SLC50A1", "PubChem SID": "SID364001218", "BNIP3L mRNA, set 1": 0.0794, "NDRG1 mRNA, set 1": 0.126}
{"gene symbol": "CTSE (cathepsin E)", "PubChem SID": "SID363993123", "BNIP3L mRNA, set 1": 0.0128, "NDRG1 mRNA, set 1": 0.0151}
{"gene symbol": "PCNP (PEST proteolytic signal containing nuclear protein)", "PubChem SID": "SID364001625", "BNIP3L mRNA, set 1": 0.0654, "NDRG1 mRNA, set 1": 0.188}
{"gene symbol": "RANGRF (RAN guanine nucleotide release factor)", "PubChem SID": "SID364000146", "BNIP3L mRNA, set 1": 0.0982, "NDRG1 mRNA, set 1": 0.124}
{"gene symbol": "TMX3 (thioredoxin related transmembrane protein 3)", "PubChem SID": "SID364001335", "BNIP3L mRNA, set 1": 0.0353, "NDRG1 mRNA, set 1": 0.116}
{"gene symbol": "ANKHD1 (ankyrin repeat and KH domain containing 1)", "PubChem SID": "SID364000494", "BNIP3L mRNA, set 1": 0.139, "NDRG1 mRNA, set 1": 0.164}
{"gene symbol": "CDKN2AIP (CDKN2A interacting protein)", "PubChem SID": "SID364000404", "BNIP3L mRNA, set 1": 0.0826, "NDRG1 mRNA, set 1": 0.0628}
{"gene symbol": "SNX27 (sorting nexin 27)", "PubChem SID": "SID364003493", "BNIP3L mRNA, set 1": 0.0919, "NDRG1 mRNA, set 1": 0.209}
{"gene symbol": "ZBTB33 (zinc finger and BTB domain containing 33)", "PubChem SID": "SID363997546", "BNIP3L mRNA, set 1": 0.428, "NDRG1 mRNA, set 1": 0.136}
{"gene symbol": "NLRP8 (NLR family pyrin domain containing 8)", "PubChem SID": "SID364004881", "BNIP3L mRNA, set 1": 0.126, "NDRG1 mRNA, set 1": 0.145}
{"gene symbol": "MRPS25 (mitochondrial ribosomal protein S25)", "PubChem SID": "SID364002482", "BNIP3L mRNA, set 1": 0.0552, "NDRG1 mRNA, set 1": 0.448}
{"gene symbol": "SLC7A2", "PubChem SID": "SID363994195", "BNIP3L mRNA, set 1": 0.121, "NDRG1 mRNA, set 1": 0.229}
{"gene symbol": "KIF5C (kinesin family member 5C)", "PubChem SID": "SID364005596", "BNIP3L mRNA, set 1": 0.0653, "NDRG1 mRNA, set 1": 0.144}
{"gene symbol": "CNTRL (centriolin)", "PubChem SID": "SID363997750", "BNIP3L mRNA, set 1": 0.094, "NDRG1 mRNA, set 1": 0.163}

2 entries already listed, arranged by “BNIP3L mRNA, set 1”, low to high:
{"gene symbol": "DBH (dopamine beta-hydroxylase)", "PubChem SID": "SID363992077", "BNIP3L mRNA, set 1": 0.0915, "NDRG1 mRNA, set 1": 0.252}
{"gene symbol": "ONECUT2 (one cut homeobox 2)", "PubChem SID": "SID363995803", "BNIP3L mRNA, set 1": 0.127, "NDRG1 mRNA, set 1": 0.217}
